Assay results reported in patent US7947647B2, “Synthetic mimics of mammalian cell surface receptors: method and compositions” (The Penn State Research Foundation, priority 2004, dated 2011).

Key:
Format in all cases: cell-based, human
Jurkat lymphocytes [1] = assay: Quantification of the number of receptors on the cell surface
Jurkat lymphocytes [2] = assay: Subcellular localization of fluorescent receptors (epifluorescence microscopy, dithionite quenching); settings: 10 μM, 1 h
[3] = system: lipid raft fractions of plasma membranes of Jurkat lymphocytes; assay: Isolation of lipid rafts by sucrose density gradient ultracentrifugation; settings: receptors 1 μM with anti-DNP-AF488, Triton-X, 4° C.

Row | Molecule | subcellular localization (Jurkat lymphocytes [2]) | other results
1 | CC(C)CCC[C@@H](C)[C@H]1CC[C@H]2[C@@H]3CC=C4C[C@@H](NCCCCC(=O)NCCC(=O)NCCC(=O)NCCCCC(C(=O)O)N(CC(=O)O)CC(=O)O)CC[C@]4(C)[C@H]3CC[C@]12C (stereo partly drawn) [receptor 1, 4-Carboxy-3-(carboxymethyl)-22-[(3β)-cholest-5-en-3-ylamino]-10,14,18-trioxo-3,9,13,17-tetraazadocosan-1-oic acid] |  | average number of receptors per cell (Jurkat lymphocytes [1]; 10 μM receptor 1 h at 37° C.): ~45,000,000; molecules of equivalent fluorescein (MEFL) per cell (Jurkat lymphocytes [1]; 10 μM receptor, calibration curve): 39,300,000
2 | CC(C)CCC[C@@H](C)[C@H]1CC[C@H]2[C@@H]3CC=C4C[C@@H](NCCCNC(=O)CCNC(=O)CCNC(=O)CCCCCNc5ccc([N+](=O)[O-])c6nonc56)CC[C@]4(C)[C@H]3CC[C@]12C [receptor 6, N-(3-{[3-({3-[(3β)-cholest-5-en-3-ylamino]propyl}amino)-3-oxopropyl]amino}-3-oxopropyl)-6-(7-nitrobenzofurazan-4-ylamino)hexanamide] | predominantly on the cell surface | 
3 | CC(C)CCC[C@@H](C)[C@H]1CC[C@H]2[C@@H]3CC=C4C[C@@H](NCCCNC(=O)CCNC(=O)CCCCCNc5ccc([N+](=O)[O-])c6nonc56)CC[C@]4(C)[C@H]3CC[C@]12C [receptor 7, N-[3-({3-[(3β)-cholest-5-en-3-ylamino]propyl}amino)-3-oxopropyl]-6-(7-nitrobenzofurazan-4-ylamino)hexanamide] | lower cell surface localization | 
4 | CC(C)CCCC(C)[C@H]1CCC2C3CC=C4CC(NCCCNC(=O)CCCCCNc5ccc([N+](=O)[O-])c6nonc56)CC[C@]4(C)C3CC[C@@]21C (stereo partly shown) [receptor 8] | primarily intracellular | 
5 | CC(C)CCC[C@@H](C)[C@H]1CC[C@H]2[C@@H]3CC=C4C[C@@H](NC(=O)CCNC(=O)CCCCCNc5ccc([N+](=O)[O-])c6nonc56)CC[C@]4(C)[C@H]3CC[C@]12C [receptor 9, N-[3-[(3β)-cholest-5-en-3-ylamino]-3-oxopropyl]-6-(7-nitrobenzofurazan-4-ylamino)hexanamide] | essentially completely associated with internal membranes | 
6 | transferrin: green fluorescent transferrin protein, negative control for lipid rafts [reference compound] |  | association with low-density lipid raft membrane fraction (#5) [3]: not observed
